PubChem BioAssay AID1224826 | NIAID, 2016
Purpose: 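Regulators of Tlr4 signalling leading to Tnf-alpha expression in macrophages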 (primary screen). Cells: RAW264.7 G9 macrophages from mouse bearing reporters for p65 (GFP) and the Tnf promoter (mCherry). Reagent: siRNA pool against mouse genes, 100 nM. Timing: 16 h of LPS stimulation, after 2 days of siRNA transfection. Treatment: bacterial lipopolysaccharide (Salmonella minnesota R595), 10 ng/ml. Read-out: 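Imaged Tnf reporter mCherry in nuclei, minus background, normalised per plate to the median and expressed as robust z-scores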. Reading the numbers: Tnf reporter robust z-score: higher = stronger Tnf promoter reporter signal after LPS. Hit rule: 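Called active when robust z-score is at most -1.3, matching the median of the Tlr4 knock-down control, or over 3; control wells and wells with under 50 cells never active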. Calls: active = Tnf reporter clearly lowered or raised; inactive = no clear change in Tnf reporter.
The whole screen tested about 17,000 reagents; shown is a part drawn at random. In the full data, about 1,110 (6.6%) are marked active. 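Active means lowered or raised reporter signal; replicate intensities are raw and not normalised per plate.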 Reagents against one gene are numbered here. Not all columns of the deposit are shown.

Knock-down of Ptch2 (patched 2) gave: Tnf reporter robust z-score 1.06; fewer than 50 cells in well enough cells in well; inactive.
After knock-down of Fgf17 (fibroblast growth factor 17) the results were Tnf reporter robust z-score -0.62; fewer than 50 cells in well enough cells in well; inactive.
After knock-down of Creb5 (cAMP responsive element binding protein 5) #1, the screen gave Tnf reporter robust z-score 0.4; fewer than 50 cells in well enough cells in well; inactive.
Creb5 (cAMP responsive element binding protein 5) #2 scored Tnf reporter robust z-score -0.68; fewer than 50 cells in well enough cells in well; inactive.
Ubtd1 (ubiquitin domain containing 1) showed Tnf reporter robust z-score 0.99; fewer than 50 cells in well enough cells in well; inactive.
After knock-down of Sfr1 (SWI5 dependent recombination repair 1), the record shows Tnf reporter robust z-score -0.4; fewer than 50 cells in well enough cells in well; inactive.
Knock-down of Hcfc1 (host cell factor C1) gave: Tnf reporter robust z-score 1.3; fewer than 50 cells in well enough cells in well; inactive.
Depletion of Smg6 (SMG6 nonsense mediated mRNA decay factor) resulted in: Tnf reporter robust z-score 0.08; fewer than 50 cells in well enough cells in well; inactive.
Against Mettl4 (methyltransferase 4, N6-adenosine) the deposit lists Tnf reporter robust z-score -0.57; fewer than 50 cells in well enough cells in well; inactive.
With knock-down of Gip (gastric inhibitory polypeptide), the screen gave Tnf reporter robust z-score -0.92; fewer than 50 cells in well enough cells in well; inactive.
9930111J21Rik2 (RIKEN cDNA 9930111J21 gene 2) scored Tnf reporter robust z-score -0.74; fewer than 50 cells in well enough cells in well; inactive.
With knock-down of Smpd1 (sphingomyelin phosphodiesterase 1, acid lysosomal), the screen gave Tnf reporter robust z-score -0.52; fewer than 50 cells in well enough cells in well; inactive.
After knock-down of Naa25 (N(alpha)-acetyltransferase 25, NatB auxiliary subunit) the results were Tnf reporter robust z-score -0.68; fewer than 50 cells in well enough cells in well; inactive.
For Echdc1 (enoyl Coenzyme A hydratase domain containing 1), the values are Tnf reporter robust z-score -0.16; fewer than 50 cells in well enough cells in well; inactive.
Ndst3 (N-deacetylase/N-sulfotransferase (heparan glucosaminyl) 3) showed Tnf reporter robust z-score -0.58; fewer than 50 cells in well enough cells in well; inactive.
Silencing of Pgc (progastricsin (pepsinogen C)) came out at: Tnf reporter robust z-score -0.46; fewer than 50 cells in well enough cells in well; inactive.
With knock-down of Elmod2 (ELMO/CED-12 domain containing 2), the record shows Tnf reporter robust z-score -1.44; fewer than 50 cells in well enough cells in well; active.
For Vmn1r70 (vomeronasal 1 receptor 70) the deposit lists Tnf reporter robust z-score 0.15; fewer than 50 cells in well enough cells in well; inactive.
Against Rspo4 (R-spondin 4) the deposit lists Tnf reporter robust z-score 0.33; fewer than 50 cells in well enough cells in well; inactive.
After knock-down of Psbpc1 (retired record) the results were Tnf reporter robust z-score -1.07; fewer than 50 cells in well enough cells in well; inactive.
After knock-down of Spata24 (spermatogenesis associated 24), the screen gave Tnf reporter robust z-score -0.59; fewer than 50 cells in well enough cells in well; inactive.

Reformatted: entries from further up
Ndst3 (N-deacetylase/N-sulfotransferase (heparan glucosaminyl) 3)
- Tnf reporter robust z-score: -0.58
- fewer than 50 cells in well: enough cells in well
- call: inactive

Pgc (progastricsin (pepsinogen C))
- Tnf reporter robust z-score: -0.46
- fewer than 50 cells in well: enough cells in well
- call: inactive
